The values below come from article PMC11837972.

By UniProt entry, the sequences of proteins in these tests, tags left out. Where a name states a change or a piece, a line headed by the entry shows the natural chain unless it says otherwise.
UniProt Q14653: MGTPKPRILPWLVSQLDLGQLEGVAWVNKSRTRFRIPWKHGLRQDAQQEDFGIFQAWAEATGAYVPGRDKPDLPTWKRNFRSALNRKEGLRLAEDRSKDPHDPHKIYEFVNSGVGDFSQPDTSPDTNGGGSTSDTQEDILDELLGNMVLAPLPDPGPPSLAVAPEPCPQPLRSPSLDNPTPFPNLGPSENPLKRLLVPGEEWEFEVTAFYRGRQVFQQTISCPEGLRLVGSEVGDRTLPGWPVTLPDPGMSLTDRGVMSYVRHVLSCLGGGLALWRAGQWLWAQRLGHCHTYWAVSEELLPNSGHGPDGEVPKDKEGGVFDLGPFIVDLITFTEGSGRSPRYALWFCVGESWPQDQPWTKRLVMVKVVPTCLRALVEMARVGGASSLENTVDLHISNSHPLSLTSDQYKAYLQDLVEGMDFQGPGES
UniProt Q92793: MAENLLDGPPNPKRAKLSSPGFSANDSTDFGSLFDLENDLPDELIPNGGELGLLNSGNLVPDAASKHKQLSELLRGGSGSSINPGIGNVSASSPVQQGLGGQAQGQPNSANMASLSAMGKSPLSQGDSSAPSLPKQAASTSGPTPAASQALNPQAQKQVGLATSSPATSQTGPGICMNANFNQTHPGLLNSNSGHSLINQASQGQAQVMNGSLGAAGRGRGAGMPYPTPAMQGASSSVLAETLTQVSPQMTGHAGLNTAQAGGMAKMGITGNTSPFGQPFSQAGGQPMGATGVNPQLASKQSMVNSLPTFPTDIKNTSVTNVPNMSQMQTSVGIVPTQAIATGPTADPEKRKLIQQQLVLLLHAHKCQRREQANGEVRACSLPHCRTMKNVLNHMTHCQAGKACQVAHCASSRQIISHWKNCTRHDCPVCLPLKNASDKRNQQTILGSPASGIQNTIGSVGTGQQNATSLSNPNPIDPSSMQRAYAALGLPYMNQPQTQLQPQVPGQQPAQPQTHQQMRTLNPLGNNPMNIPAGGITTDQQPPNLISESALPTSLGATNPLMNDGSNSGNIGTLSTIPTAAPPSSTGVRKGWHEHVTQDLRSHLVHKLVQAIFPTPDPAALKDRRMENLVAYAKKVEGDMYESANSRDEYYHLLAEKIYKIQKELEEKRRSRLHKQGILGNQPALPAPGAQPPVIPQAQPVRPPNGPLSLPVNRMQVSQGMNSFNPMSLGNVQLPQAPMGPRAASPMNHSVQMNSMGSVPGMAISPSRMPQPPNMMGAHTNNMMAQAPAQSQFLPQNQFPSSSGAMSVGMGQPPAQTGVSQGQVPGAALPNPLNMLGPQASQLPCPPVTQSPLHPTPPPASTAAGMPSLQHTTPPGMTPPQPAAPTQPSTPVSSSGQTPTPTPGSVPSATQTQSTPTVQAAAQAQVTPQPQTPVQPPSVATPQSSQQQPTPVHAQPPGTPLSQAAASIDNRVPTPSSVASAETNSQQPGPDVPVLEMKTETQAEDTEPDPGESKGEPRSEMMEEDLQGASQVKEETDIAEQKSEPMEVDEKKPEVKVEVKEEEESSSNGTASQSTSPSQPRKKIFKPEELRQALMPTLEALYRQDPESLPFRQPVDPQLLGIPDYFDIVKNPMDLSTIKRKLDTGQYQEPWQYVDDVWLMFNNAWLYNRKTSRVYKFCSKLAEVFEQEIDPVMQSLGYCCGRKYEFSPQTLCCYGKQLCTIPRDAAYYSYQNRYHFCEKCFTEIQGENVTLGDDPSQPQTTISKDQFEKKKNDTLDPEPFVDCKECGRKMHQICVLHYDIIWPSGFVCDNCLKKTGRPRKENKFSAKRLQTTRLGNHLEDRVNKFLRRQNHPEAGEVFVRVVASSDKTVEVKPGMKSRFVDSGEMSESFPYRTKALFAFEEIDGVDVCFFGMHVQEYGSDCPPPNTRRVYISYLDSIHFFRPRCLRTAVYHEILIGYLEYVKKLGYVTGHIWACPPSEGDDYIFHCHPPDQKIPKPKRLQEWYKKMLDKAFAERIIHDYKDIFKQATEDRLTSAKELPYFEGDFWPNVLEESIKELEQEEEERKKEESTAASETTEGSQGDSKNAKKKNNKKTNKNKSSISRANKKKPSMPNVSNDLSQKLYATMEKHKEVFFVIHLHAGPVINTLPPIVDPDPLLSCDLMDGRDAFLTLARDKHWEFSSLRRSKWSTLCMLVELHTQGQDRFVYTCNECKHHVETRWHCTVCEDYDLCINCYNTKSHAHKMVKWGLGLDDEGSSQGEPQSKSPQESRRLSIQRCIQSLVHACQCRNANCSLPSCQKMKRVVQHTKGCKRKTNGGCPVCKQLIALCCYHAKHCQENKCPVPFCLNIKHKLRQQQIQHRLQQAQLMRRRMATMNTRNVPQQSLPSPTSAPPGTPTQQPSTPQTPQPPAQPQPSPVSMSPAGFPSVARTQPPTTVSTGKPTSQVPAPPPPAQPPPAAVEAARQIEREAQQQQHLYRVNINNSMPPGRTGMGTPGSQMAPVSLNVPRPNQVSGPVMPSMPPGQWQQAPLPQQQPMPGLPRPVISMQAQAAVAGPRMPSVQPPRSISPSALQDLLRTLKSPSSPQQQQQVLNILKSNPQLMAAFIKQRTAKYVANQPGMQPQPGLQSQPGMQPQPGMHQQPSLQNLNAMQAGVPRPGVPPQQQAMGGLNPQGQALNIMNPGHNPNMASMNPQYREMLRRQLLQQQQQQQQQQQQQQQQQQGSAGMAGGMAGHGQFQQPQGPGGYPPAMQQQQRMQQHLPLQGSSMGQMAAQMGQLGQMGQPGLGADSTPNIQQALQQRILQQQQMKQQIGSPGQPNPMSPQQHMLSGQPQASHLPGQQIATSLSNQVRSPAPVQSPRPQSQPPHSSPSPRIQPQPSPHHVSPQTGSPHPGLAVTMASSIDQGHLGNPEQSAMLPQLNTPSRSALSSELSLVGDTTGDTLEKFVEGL
UniProt Q09472: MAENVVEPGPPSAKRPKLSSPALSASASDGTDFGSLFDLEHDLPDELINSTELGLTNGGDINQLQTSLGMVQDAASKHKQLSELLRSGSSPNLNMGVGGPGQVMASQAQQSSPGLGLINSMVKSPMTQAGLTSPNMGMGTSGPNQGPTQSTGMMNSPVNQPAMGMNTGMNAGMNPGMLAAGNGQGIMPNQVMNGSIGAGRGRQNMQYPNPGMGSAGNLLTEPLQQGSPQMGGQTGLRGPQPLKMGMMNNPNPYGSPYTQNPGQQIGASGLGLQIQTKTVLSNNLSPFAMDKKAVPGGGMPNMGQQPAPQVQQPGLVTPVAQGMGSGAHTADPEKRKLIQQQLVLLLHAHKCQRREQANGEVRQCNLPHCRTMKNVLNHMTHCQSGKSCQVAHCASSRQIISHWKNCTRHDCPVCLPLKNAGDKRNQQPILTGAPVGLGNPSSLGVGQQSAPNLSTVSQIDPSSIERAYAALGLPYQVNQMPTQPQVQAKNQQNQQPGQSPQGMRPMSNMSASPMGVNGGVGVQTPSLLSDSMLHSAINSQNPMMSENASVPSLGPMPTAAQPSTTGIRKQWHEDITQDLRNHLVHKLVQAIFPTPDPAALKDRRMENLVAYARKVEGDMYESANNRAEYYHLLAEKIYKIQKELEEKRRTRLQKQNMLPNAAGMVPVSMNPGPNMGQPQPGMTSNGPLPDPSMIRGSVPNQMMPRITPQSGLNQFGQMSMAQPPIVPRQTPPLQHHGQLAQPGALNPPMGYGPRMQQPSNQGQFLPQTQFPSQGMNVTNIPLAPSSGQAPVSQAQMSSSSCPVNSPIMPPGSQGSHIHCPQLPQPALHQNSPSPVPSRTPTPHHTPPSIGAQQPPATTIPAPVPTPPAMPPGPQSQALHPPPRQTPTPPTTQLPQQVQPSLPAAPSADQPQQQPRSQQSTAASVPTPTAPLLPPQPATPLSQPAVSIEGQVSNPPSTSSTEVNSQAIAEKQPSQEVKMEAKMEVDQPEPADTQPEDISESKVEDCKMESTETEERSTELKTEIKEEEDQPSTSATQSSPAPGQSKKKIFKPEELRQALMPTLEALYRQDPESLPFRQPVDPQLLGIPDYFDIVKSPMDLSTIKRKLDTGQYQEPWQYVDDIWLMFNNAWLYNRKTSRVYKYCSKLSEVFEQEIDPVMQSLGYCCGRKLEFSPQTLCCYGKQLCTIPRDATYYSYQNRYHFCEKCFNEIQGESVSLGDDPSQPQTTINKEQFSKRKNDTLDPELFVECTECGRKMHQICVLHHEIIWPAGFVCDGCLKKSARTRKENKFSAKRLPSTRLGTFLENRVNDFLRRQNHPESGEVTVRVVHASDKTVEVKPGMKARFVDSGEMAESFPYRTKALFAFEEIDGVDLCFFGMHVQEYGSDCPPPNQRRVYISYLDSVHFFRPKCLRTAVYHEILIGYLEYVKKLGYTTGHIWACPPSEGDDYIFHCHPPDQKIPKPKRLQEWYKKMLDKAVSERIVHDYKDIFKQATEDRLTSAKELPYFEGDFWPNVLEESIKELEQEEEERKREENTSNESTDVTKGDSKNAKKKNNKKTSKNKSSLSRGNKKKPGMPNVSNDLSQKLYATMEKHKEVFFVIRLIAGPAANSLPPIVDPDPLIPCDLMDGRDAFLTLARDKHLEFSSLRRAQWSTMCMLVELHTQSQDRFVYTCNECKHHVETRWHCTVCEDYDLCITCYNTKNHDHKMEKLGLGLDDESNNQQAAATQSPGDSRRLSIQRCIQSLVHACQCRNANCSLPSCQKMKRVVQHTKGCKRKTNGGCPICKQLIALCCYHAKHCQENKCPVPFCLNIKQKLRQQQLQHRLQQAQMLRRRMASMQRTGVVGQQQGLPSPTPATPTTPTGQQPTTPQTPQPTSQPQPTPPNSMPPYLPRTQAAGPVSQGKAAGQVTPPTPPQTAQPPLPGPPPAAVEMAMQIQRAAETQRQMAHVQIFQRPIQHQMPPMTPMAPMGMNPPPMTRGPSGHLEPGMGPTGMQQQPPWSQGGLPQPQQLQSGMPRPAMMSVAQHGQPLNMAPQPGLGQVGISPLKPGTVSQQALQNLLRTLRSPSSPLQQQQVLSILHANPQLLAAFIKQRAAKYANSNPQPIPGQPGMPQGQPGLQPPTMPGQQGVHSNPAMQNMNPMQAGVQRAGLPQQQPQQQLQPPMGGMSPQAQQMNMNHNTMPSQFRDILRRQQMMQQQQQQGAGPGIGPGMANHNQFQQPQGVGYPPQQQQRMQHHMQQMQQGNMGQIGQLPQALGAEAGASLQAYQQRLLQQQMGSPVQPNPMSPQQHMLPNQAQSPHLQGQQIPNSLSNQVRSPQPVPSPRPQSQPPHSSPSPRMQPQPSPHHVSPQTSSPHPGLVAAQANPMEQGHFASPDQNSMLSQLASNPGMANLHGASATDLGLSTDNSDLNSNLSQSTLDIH

Positions count from the first letter of the chain named. In names and notes the source's numbering stands. Results are given in words; binding and its absence hold for the method and conditions named. In cells and extracts the contact can be indirect. Binding can be weak; no strength is given. For some of these results: Tags and fused reporters may be left off the sequences shown.

The target of experiment [1] is HA-IRF3-5D (a constitutively active IRF3 mutant) (UniProt Q14653). The experiment is described as follows: co-IP; HEK293T transfected with HA-IRF3-5D and EGFP-PARP7 or EGFP-PARP7-H532A; IP with HA antibody; endogenous CBP/p300 blotted; the text says 'in the nucleus'.
Experiment [2] has the same target. The experiment is described as follows: co-IP; HEK293T co-transfected with HA-IRF3 or HA-IRF3-5D and EGFP-PARP7 constructs; IP with HA antibody on Protein G or A Dynabeads overnight at 4°C; IP lysis buffer 20 mM Tris-HCl pH 7.4, 0.5% Nonidet-P40, 150 mM NaCl, 1 μM veliparib; blotted.

As for “CREB-binding protein (CBP), endogenous in HEK293T (from UniProt Q92793 1-2442)”, in experiment [1], the binding result is on record as “binds”.

Regarding “p300, endogenous in HEK293T (from UniProt Q09472 1-2414)”, the binding entry in experiment [1] is “binds”.

B1: EGFP-PARP7 (enzyme, UniProt Q7Z3E1 1-657)
chain: MEMETTEPEPDCVVQPPSPPDDFSCQMRLSEKITPLKTCFKKKDQKRLGTGTLRSLRPILNTLLESGSLDGVFRSRNQSTDENSLHEPMMKKAMEINSSCPPAENNMSVLIPDRTNVGDQIPEAHPSTEAPERVVPIQDHSFPSETLSGTVADSTPAHFQTDLLHPVSSDVPTSPDCLDKVIDYVPGIFQENSFTIQYILDTSDKLSTELFQDKSEEASLDLVFELVNQLQYHTHQENGIEICMDFLQGTCIYGRDCLKHHTVLPYHWQIKRTTTQKWQSVFNDSQEHLERFYCNPENDRMRMKYGGQEFWADLNAMNVYETTEFDQLRRLSTPPSSNVNSIYHTVWKFFCRDHFGWREYPESVIRLIEEANSRGLKEVRFMMWNNHYILHNSFFRREIKRRPLFRSCFILLPYLQTLGGVPTQAPPPLEATSSSQIICPDGVTSANFYPETWVYMHPSQDFIQVPVSAEDKSYRIIYNLFHKTVPEFKYRILQILRVQNQFLWEKYKRKKEYMNRKMFGRDRIINERHLFHGTSQDVVDGICKHNFDPRVCGKHATMFGQGSYFAKKASYSHNFSKKSSKGVHFMFLAKVLTGRYTMGSHGMRRPPPVNPGSVTSDLYDSCVDNFFEPQIFVIFNDDQSYPYFVIQYEEVSNTVSI
As to B1, in experiment [2], the binding entry is recorded as “binds”.

B2: EGFP-PARP7-H532A (enzyme, UniProt Q7Z3E1 1-657)
chain: B1 chain with H532A
On to B2, for which the binding result in experiment [2] is “binds”.
